The results in this text go back to article PMC1937011.

Sequences of proteins named here, by UniProt entry; tags and fusion partners are left off.
UniProt P9WJD9: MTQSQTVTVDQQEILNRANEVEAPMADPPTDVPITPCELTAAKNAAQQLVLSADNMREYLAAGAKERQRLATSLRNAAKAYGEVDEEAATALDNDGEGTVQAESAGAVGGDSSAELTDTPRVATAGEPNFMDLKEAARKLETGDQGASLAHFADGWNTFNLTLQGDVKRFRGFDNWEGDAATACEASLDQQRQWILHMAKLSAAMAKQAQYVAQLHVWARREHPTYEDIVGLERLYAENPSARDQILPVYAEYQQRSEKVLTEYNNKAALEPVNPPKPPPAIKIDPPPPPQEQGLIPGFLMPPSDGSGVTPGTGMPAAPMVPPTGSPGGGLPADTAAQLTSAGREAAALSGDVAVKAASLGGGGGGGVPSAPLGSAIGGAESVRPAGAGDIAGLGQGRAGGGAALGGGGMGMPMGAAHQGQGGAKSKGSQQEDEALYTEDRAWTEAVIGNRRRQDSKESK

The assay concerns the target T1, GST-tagged Rv3879c (M. tuberculosis) (UniProt P9WJC1).
T1 sequence: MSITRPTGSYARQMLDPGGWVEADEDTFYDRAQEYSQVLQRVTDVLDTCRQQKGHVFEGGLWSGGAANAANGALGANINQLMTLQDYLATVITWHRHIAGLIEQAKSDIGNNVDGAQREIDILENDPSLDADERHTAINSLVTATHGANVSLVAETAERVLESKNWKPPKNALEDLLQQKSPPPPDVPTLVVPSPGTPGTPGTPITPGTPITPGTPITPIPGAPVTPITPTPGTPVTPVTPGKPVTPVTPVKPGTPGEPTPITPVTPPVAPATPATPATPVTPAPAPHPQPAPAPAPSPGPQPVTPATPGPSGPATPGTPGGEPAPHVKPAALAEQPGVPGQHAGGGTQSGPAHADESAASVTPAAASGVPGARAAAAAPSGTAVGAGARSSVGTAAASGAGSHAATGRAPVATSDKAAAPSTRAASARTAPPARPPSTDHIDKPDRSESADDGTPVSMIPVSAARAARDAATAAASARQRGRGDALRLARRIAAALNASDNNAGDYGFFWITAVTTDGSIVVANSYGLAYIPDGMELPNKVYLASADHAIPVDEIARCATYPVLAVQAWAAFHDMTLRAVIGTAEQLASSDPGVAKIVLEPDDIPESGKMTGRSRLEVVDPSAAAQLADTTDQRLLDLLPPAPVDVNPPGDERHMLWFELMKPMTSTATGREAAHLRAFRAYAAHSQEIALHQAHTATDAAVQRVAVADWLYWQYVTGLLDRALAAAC

No constants are given. Whether binding was seen depends on the method and setting. Binding seen in cells or lysates may run through a third protein. Some binding calls cover weakened binding; strength is not graded here. Sequences can lack the tags named with a protein.

Turning to “V5-tagged EspBT (from UniProt P9WJD9 1-460)”, the binding result is “binds”.
